Measured values reported in the supplement of paper PMC12819154, “High-throughput peptide-centric local stability assay extends protein–ligand identification to membrane proteins, tissues and bacteria” (Nature Structural & Molecular Biology, 2025).
The other results are listed elsewhere or left out. Most values lie at the level of the controls, where differences are scatter.

Sequences of proteins named here, by UniProt entry; tags and fusion partners are left off. A change or cut given only in a name is not applied to a line headed by its entry.
UniProt P28331, whole entry: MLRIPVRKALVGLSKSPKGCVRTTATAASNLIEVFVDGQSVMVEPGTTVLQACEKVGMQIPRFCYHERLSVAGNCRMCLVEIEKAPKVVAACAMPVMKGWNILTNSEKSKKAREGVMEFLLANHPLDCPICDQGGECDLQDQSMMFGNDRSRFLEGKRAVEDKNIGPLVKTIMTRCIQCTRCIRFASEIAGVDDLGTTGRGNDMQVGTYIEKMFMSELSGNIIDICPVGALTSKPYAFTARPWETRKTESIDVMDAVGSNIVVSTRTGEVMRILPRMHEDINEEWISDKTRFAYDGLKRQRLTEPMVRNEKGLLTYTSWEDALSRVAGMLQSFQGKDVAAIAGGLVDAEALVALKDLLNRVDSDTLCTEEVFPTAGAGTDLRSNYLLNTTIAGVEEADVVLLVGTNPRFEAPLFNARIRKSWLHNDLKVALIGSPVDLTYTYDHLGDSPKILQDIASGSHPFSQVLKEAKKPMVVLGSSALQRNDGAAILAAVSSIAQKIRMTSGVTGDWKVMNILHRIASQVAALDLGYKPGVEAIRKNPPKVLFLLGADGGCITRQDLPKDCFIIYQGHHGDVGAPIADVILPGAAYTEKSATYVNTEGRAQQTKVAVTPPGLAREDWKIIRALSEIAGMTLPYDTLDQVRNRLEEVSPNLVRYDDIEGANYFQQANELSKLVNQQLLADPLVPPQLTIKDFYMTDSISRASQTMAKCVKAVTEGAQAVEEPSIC
UniProt P26640: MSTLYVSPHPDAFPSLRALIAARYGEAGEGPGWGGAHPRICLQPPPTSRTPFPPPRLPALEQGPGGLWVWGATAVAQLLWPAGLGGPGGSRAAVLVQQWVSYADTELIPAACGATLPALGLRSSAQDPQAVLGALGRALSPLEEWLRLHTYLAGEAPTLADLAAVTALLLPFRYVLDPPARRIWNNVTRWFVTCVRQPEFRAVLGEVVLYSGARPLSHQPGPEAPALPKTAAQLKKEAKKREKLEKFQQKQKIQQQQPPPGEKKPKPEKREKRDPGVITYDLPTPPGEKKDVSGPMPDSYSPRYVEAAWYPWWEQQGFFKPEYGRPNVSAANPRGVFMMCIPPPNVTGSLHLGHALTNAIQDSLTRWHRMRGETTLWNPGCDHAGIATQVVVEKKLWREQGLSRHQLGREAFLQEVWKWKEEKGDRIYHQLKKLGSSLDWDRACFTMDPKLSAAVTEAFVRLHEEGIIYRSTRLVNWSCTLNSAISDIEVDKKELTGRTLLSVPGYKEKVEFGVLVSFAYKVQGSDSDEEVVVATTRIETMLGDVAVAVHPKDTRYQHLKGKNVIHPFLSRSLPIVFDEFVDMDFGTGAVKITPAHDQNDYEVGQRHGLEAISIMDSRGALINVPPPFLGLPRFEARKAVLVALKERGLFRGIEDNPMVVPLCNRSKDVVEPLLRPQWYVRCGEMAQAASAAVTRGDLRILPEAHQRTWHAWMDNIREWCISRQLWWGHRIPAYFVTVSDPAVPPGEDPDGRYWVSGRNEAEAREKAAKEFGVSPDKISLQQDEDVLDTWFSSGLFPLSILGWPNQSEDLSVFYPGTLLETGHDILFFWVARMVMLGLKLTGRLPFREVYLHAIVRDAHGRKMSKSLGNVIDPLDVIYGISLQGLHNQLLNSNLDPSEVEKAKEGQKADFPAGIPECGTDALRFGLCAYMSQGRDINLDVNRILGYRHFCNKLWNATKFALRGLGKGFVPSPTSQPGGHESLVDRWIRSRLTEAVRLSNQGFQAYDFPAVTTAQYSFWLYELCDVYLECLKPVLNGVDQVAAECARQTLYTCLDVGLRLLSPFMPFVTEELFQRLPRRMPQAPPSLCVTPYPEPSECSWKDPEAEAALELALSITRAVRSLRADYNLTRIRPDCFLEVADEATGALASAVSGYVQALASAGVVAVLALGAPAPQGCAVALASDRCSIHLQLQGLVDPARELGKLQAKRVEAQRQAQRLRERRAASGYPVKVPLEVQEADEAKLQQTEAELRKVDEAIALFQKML
UniProt P17096: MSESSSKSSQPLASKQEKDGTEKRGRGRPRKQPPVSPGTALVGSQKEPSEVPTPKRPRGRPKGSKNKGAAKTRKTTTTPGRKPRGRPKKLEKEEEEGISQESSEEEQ
UniProt P24522: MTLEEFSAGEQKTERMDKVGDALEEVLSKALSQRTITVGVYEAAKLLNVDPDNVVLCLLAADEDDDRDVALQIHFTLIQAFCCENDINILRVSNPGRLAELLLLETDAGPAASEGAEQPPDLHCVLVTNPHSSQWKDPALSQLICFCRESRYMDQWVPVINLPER
UniProt P17275: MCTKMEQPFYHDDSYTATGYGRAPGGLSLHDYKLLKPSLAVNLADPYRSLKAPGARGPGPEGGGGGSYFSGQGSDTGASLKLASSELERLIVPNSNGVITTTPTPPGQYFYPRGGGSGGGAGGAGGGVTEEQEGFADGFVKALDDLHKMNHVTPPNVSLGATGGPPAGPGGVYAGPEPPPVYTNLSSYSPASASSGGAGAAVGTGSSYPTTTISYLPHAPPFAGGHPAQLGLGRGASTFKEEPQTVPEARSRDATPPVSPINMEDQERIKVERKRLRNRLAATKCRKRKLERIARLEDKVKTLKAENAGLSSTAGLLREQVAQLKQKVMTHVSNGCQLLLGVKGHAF
UniProt P23443: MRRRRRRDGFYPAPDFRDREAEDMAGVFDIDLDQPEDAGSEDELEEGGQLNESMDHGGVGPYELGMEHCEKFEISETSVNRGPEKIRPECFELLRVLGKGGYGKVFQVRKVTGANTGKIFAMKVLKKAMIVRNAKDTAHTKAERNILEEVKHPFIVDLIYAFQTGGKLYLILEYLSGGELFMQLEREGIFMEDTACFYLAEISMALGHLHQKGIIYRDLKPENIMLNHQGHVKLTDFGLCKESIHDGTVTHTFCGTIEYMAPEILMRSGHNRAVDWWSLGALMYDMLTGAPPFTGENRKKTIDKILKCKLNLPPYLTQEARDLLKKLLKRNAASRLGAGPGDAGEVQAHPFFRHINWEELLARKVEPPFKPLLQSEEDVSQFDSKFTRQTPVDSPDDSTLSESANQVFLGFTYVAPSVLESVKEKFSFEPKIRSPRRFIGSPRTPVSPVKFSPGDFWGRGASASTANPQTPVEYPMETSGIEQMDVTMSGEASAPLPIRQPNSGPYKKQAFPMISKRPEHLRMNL
UniProt P21964: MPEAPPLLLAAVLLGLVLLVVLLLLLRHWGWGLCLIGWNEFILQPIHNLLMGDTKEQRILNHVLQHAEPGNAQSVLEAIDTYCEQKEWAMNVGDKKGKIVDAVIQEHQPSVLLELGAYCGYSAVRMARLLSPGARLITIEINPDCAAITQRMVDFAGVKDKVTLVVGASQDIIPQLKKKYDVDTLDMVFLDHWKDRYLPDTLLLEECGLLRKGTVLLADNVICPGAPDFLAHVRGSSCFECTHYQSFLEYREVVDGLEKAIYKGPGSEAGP
UniProt P28074: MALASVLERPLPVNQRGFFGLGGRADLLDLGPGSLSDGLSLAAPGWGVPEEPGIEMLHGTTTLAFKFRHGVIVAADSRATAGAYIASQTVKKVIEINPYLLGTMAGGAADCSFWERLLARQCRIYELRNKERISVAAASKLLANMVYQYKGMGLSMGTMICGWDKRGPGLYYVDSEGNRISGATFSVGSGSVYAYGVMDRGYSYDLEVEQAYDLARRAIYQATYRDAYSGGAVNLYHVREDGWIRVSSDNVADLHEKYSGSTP
UniProt P15407: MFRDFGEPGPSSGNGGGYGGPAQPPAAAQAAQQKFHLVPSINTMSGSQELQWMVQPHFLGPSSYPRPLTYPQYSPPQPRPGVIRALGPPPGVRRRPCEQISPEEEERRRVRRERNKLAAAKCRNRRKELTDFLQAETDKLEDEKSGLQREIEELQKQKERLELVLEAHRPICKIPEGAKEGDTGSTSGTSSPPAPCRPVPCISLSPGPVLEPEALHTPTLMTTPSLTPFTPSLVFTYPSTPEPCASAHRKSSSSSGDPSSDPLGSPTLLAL
UniProt P17020: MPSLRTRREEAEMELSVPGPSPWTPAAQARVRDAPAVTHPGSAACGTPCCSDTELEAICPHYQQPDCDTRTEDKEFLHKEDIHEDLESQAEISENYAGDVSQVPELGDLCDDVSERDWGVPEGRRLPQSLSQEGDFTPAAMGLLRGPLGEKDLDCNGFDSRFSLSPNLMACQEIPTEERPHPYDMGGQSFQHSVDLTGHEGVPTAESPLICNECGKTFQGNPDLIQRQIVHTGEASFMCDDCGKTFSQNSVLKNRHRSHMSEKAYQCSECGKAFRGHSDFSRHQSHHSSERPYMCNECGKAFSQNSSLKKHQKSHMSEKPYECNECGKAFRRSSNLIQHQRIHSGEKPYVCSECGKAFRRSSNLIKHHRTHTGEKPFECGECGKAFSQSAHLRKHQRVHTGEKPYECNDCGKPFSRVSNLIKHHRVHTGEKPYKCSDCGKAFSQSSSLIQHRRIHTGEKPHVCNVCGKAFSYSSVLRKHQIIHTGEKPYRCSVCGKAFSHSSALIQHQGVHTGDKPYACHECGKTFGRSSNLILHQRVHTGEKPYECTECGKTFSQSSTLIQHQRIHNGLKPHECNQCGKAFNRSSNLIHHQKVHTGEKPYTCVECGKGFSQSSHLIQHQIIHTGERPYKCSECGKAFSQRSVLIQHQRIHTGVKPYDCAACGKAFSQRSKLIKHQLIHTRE
UniProt P15622: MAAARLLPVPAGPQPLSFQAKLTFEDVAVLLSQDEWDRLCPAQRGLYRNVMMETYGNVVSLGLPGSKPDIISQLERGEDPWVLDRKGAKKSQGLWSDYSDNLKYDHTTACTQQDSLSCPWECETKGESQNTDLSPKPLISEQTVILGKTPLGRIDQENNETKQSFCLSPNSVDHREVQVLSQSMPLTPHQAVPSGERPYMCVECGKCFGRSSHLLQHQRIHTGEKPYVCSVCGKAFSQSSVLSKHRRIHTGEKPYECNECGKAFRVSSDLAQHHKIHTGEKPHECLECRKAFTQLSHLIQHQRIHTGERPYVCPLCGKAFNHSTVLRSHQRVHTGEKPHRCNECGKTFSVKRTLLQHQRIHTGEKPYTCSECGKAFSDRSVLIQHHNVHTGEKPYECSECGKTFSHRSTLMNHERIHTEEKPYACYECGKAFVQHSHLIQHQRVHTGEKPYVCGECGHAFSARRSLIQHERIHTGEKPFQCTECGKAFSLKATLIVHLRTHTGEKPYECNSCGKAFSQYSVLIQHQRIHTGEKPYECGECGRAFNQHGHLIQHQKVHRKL
UniProt P15104, whole entry: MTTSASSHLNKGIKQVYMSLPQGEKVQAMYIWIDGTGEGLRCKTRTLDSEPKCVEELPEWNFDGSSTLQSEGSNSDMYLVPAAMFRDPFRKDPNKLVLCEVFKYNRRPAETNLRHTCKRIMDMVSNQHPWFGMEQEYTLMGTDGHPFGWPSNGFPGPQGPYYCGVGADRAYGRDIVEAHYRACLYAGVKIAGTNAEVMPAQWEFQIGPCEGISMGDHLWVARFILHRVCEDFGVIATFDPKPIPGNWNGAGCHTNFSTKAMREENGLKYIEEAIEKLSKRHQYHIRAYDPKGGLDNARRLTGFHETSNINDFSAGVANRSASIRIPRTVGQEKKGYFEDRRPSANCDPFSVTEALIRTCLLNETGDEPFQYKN
UniProt P24386: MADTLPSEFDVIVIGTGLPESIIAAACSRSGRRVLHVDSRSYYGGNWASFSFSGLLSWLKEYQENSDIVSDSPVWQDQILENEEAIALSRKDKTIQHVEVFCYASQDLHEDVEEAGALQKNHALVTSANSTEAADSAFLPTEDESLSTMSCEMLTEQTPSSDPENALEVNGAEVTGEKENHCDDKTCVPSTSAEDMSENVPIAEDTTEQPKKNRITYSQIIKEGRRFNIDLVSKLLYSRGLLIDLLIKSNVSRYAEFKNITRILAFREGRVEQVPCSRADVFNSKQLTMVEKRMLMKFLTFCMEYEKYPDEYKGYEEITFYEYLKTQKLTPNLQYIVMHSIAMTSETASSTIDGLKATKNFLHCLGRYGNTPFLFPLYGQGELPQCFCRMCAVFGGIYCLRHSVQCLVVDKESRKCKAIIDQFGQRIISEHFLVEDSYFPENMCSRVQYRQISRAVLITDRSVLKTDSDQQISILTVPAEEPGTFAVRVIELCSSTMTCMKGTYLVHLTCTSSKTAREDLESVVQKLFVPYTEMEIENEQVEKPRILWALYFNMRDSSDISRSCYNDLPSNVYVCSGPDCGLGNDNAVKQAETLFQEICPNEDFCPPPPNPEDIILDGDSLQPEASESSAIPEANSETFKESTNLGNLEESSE
UniProt P26447: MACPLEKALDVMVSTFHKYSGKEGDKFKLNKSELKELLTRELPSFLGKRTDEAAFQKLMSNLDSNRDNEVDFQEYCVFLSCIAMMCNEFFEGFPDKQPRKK
UniProt P17482: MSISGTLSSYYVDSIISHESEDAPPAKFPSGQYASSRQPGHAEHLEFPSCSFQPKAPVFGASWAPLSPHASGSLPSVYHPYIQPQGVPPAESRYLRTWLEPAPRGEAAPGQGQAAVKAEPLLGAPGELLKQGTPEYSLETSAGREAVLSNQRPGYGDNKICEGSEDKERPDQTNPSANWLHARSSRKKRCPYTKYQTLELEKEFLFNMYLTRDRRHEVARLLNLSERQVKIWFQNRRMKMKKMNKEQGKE

What follows are targets tested with Cc1nc(Nc2ncc(C(=O)Nc3c(C)cccc3Cl)s2)cc(N2CCN(CCO)CC2)n1 [dasatinib] (assay: log2 fold change of tryptic peptide abundance, ligand vs vehicle (limited proteolysis) (log2 ratio); higher = more trypsin-susceptible (destabilized)). Details: ligand concentration: 5 uM; sample: K562 cleared lysate.

Row | Target | log2 fold change
1 | DES (peptide sequence: KLLEGEESR, peptide start residue: 402) (UniProt P17661) | -0.091
2 | EZR (peptide sequence: ITEAEKNER, peptide start residue: 518) (UniProt P15311) | 0.174
3 | H2AFX (peptide sequence: KTSATVGPK, peptide start residue: 120) (UniProt P16104) | -0.0875
4 | NDUFS1 (peptide sequence: DFYMTDSISR, peptide start residue: 693) (UniProt P28331) | 0.345
5 | VARS (peptide sequence: TLLSVPGYKEK, peptide start residue: 499) (UniProt P26640) | 0.597
6 | HMGA1 (peptide sequence: EPSEVPTPK, peptide start residue: 47) (UniProt P17096) | 0.196
7 | GADD45A (peptide sequence: MDKVGDALEEVLSK, peptide start residue: 16) (UniProt P24522) | 0.0129
8 | UniProt P24928 (peptide sequence: FGVEQPEGDEDLTKEKGHGGCGR, peptide start residue: 164) | -0.96
9 | MYL6B (peptide sequence: HVLTTLGEK, peptide start residue: 168) (UniProt P14649) | -0.26
10 | U2AF2 (peptide sequence: VVVTKYCDPDSYHRR, peptide start residue: 458) (UniProt P26368) | 0.638
11 | JUNB (peptide sequence: LASSELER, peptide start residue: 82) (UniProt P17275) | 0.0791
12 | UniProt P23443 (peptide sequence: HINWEELLAR, peptide start residue: 354) | -0.207
13 | COMT (peptide sequence: DKVTLVVGASQDIIPQLK, peptide start residue: 160) (UniProt P21964) | 0.098
14 | PSMB5 (peptide sequence: FRHGVIVAADSR, peptide start residue: 67) (UniProt P28074) | 0.782
15 | FOSL1 (peptide sequence: ALGPPPGVR, peptide start residue: 85) (UniProt P15407) | 0.0213
16 | RPS3 (peptide sequence: GCEVVVSGKLRGQR, peptide start residue: 133) (UniProt P23396) | 1.02
17 | ATF2 (peptide sequence: KSGYHTADK, peptide start residue: 426) (UniProt P15336) | -0.489
18 | UniProt P28290 (peptide sequence: SKTPLVAR, peptide start residue: 1138) | -0.435
19 | NFYA (peptide sequence: KYLHESR, peptide start residue: 297) (UniProt P23511) | -0.229

Row | Target | log2 fold change
20 | ZNF16 (peptide sequence: TFSQSSTLIQHQR, peptide start residue: 553) (UniProt P17020) | -0.217
21 | UniProt P15622 (peptide sequence: IDQENNETK, peptide start residue: 154) | -0.278
22 | ACO1 (peptide sequence: NQDLEFER, peptide start residue: 142) (UniProt P21399) | -0.392
23 | RAB6A (peptide sequence: STGGDFGNPLRK, peptide start residue: 2) (UniProt P20340) | 0.316
24 | GLUL (peptide sequence: YIEEAIEKLSKR, peptide start residue: 269) (UniProt P15104) | 0.271
25 | EIF4B (peptide sequence: DGKKDQDSR, peptide start residue: 563) (UniProt P23588) | -0.644
26 | CHM (peptide sequence: RFNIDLVSK, peptide start residue: 228) (UniProt P24386) | -0.347
27 | UniProt P18859 (peptide sequence: FEDPKFEVIEKPQA, peptide start residue: 95) | 0.11
28 | UniProt P17036 (peptide sequence: TSDLIQHQR, peptide start residue: 212) | 0.0165
29 | PSMB1 (peptide sequence: LSEGFSIHTR, peptide start residue: 57) (UniProt P20618) | -0.4
30 | NFKBIA (peptide sequence: HDSGLDSMKDEEYEQMVK, peptide start residue: 30) (UniProt P25963) | 0.571
31 | SP100 (peptide sequence: VECQAQAR, peptide start residue: 307) (UniProt P23497) | 0.161
32 | CCNB1 (peptide sequence: EAKPSATGK, peptide start residue: 65) (UniProt P14635) | -0.12
33 | RPL35A (peptide sequence: SGRLWSKAIFAGYK, peptide start residue: 2) (UniProt P18077) | -0.266
34 | UniProt P24539 (peptide sequence: HVVQSISTQQEKETIAK, peptide start residue: 222) | -0.576
35 | S100A4 (peptide sequence: ALDVMVSTFHK, peptide start residue: 8) (UniProt P26447) | -0.403
36 | HOXB9 (peptide sequence: EAVLSNQRPGYGDNK, peptide start residue: 145) (UniProt P17482) | -0.193
37 | MYL12A (peptide sequence: GNFNYIEFTR, peptide start residue: 152) (UniProt P19105) | -0.0726

Part of the list above, in CSV form:
Row,Target,log2 fold change
27,"UniProt P18859 (peptide sequence: FEDPKFEVIEKPQA, peptide start residue: 95)",0.11
28,"UniProt P17036 (peptide sequence: TSDLIQHQR, peptide start residue: 212)",0.0165
